Measurements from PMC5414174, “DNA replication licensing factor Cdc6 and Plk4 kinase antagonistically regulate centrosome duplication via Sas-6” (Nature Communications, 2017).
No constants are given. Whether binding was seen depends on the method and setting. Binding seen in cells or lysates may run through a third protein. Binding can be weak; no strength is given. For part of these data: Sequences can lack the tags named with a protein.

What was measured:
[1] = target: T1, GST-tagged Cdc6 (human) (UniProt Q99741); assay: pull-down; Sepharose beads coupled with purified GST-Cdc6 incubated with in vitro transcribed and translated HA-cyclin A; western blot with HA antibody; only the target purified
T1 sequence: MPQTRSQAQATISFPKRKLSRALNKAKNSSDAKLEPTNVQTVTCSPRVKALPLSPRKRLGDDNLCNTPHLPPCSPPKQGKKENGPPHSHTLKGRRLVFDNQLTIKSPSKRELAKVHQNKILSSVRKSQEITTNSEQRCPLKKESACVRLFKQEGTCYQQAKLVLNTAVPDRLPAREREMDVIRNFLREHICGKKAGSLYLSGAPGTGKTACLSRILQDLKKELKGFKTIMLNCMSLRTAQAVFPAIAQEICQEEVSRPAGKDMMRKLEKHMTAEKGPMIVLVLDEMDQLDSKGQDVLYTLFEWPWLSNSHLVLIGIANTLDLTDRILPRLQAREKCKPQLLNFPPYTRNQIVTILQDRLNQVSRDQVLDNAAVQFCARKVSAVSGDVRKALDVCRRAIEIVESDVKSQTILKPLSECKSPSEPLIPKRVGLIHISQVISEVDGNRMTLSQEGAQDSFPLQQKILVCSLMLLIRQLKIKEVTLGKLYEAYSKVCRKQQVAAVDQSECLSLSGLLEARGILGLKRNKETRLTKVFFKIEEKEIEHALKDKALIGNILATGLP

[2] = target: T2, Cdc6 (co-IP in vivo of Supplementary Fig. 1g) (human) (UniProt Q99741); assay: co-IP; in vivo; antibodies and constructs not told in the text (Supplementary Fig. 1g)
T2 sequence: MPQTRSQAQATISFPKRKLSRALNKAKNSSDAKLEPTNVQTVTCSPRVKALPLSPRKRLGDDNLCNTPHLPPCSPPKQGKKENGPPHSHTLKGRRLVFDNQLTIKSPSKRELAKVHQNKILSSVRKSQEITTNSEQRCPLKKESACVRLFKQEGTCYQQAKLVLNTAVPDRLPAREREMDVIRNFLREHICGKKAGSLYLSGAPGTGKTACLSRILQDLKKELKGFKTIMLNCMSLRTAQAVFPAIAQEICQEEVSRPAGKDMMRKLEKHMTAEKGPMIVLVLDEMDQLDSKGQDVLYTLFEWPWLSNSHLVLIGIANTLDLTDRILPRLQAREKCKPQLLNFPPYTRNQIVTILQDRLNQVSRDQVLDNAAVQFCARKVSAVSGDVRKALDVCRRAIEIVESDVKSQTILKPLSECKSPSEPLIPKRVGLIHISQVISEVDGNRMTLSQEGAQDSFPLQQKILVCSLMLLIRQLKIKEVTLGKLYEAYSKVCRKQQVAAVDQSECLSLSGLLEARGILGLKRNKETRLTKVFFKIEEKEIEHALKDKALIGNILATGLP

[3] = target: GFP-tagged cyclin A WT (human); assay: co-IP; co-transfected HEK293 cells, total cell extract, IP with GFP antibody on protein A Sepharose, 20 mM Tris, 125 mM NaCl, 0.5% NP-40, pH 7.5, 2 h at 4 °C; western blot with Myc and GFP antibodies; in Fig. 4d cells released into S phase

HA-tagged cyclin A (human)
binding [1]: binds

cyclin A (co-IP in vivo of Supplementary Fig. 1g) (human)
binding [2]: binds

B1: His-tagged Cdc6 (purified) (natural protein, human, UniProt Q99741 1-560, looked up)
chain: MPQTRSQAQATISFPKRKLSRALNKAKNSSDAKLEPTNVQTVTCSPRVKALPLSPRKRLGDDNLCNTPHLPPCSPPKQGKKENGPPHSHTLKGRRLVFDNQLTIKSPSKRELAKVHQNKILSSVRKSQEITTNSEQRCPLKKESACVRLFKQEGTCYQQAKLVLNTAVPDRLPAREREMDVIRNFLREHICGKKAGSLYLSGAPGTGKTACLSRILQDLKKELKGFKTIMLNCMSLRTAQAVFPAIAQEICQEEVSRPAGKDMMRKLEKHMTAEKGPMIVLVLDEMDQLDSKGQDVLYTLFEWPWLSNSHLVLIGIANTLDLTDRILPRLQAREKCKPQLLNFPPYTRNQIVTILQDRLNQVSRDQVLDNAAVQFCARKVSAVSGDVRKALDVCRRAIEIVESDVKSQTILKPLSECKSPSEPLIPKRVGLIHISQVISEVDGNRMTLSQEGAQDSFPLQQKILVCSLMLLIRQLKIKEVTLGKLYEAYSKVCRKQQVAAVDQSECLSLSGLLEARGILGLKRNKETRLTKVFFKIEEKEIEHALKDKALIGNILATGLP
notes: human Cdc6; also called His-Cdc6; source: E. coli BL21, purified (His60 Ni Superflow resin)
binding [3]: binds
